According to patent publication US9687431B2, “Use of isoleucine N-hexadecanoyl as a “volumizing” and/or “plumping” agent for human skin” (SOCIETE D'EXPLOITATION DE PRODUITS POUR LES INDUSTRIES …, priority 2009, dated 2017):
Some entries share one result that the patent states for a list of compounds.

Test system: normal human preadipocytes
Experiment: Differentiation of normal human preadipocytes in depleted differentiation medium (Bodipy lipid droplet labeling, image analysis)
Format: cell-based
Details: 15 days
Description: Normal human preadipocytes resulting from abdominal surgical waste from a donor were cultured in monolayer until confluence in the presence of a culture medium comprising PBM-2 (Preadipocyte Basal Medium-2) supplied by the company Lonza, an amount of 10% by volume of FBS (Fetal Bovine Serum) for 100% of the volume of the culture medium, L-glutamine and gentamicin.
Their differentiation into adipocytes was induced by adding a “depleted” differentiation medium comprising a mixture of insulin, dexamethasone, IBMX (isobutyl methyl xanthine) and indomethacin, and used at a dilution rate of 1/10th with respect to a “standard” differentiation medium.
A differentiation phase is also carried out on human preadipocytes as described above and cultured in monolayers as described above, but in the presence of a “standard” differentiation medium, namely a nondiluted mixture of insulin, dexamethasone, IBMX (IsoButyl Methyl Xanthine) and indomethacin, so as to obtain a “control differentiated in standard medium”.
Once the maturity of the preadipocytes was reached, namely after 15 days following the induction described above, the cultures were rinsed with a PBS (Phosphate Buffered Saline) buffer and the intracytoplasmic lipid vesicles were labeled using a specific viable fluorescent probe, Bodipy (500 μg/ml). The nuclei of the differentiated preadipocytes were also labeled using a Hoechst reagent (bisbenzimide), which is also fluorescent, at a concentration of 2 μg/ml, sold by the company Sigma. […]
For each test of products tested, including controls, the images obtained with the inverted epifluorescence microscope are analyzed using the Lucia software, allowing quantification of the Bodipy fluorescent label, in order to carry out: • a measurement of the lipid droplet surface area (Sd), • a measurement of the number of differentiated cells (Nc), and • a measurement of the number of total cell nuclei (Nnc).
For each test, the level of adipocyte differentiation (D) is then calculated by relating the lipid droplet surface area to the number of total nuclei according to the following formula: (D)=(lipid droplet surface area)/(number of total cell nuclei).
The following will thus be calculated: • the level of adipocyte differentiation of the control differentiated in depleted medium (subsequently denoted Ddm); • the level of adipocyte differentiation of the control differentiated in standard or complete medium (subsequently denoted Dcm); • the level of adipocyte differentiation of the products tested (N-hexadecanoyl isoleucine, hexadecanoic acid, isoleucine, hexadecanoic acid/isoleucine mixture in a ratio by weight of 65/35) (subsequently denoted Dpt).
For each product tested, the following are then calculated: […]

Structure (SMILES)	RAD (percentage restoration of adipocyte differentiation) (3.3 μg/ml, listed as hexadecanoic acid)	RAD (percentage restoration of adipocyte differentiation) (6.5 μg/ml, listed as hexadecanoic acid)	RAD (percentage restoration of adipocyte differentiation) (1.7 μg/ml on a dry extract basis, listed as isoleucine)	RAD (percentage restoration of adipocyte differentiation) (3.3 μg/ml, listed as isoleucine)
CCCCCCCCCCCCCCCC(=O)O [Hexadecanoic acid, hexadecanoic acid]	less than 10%	less than 10%		
CC[C@H](C)[C@H](N)C(=O)O [Isoleucine, isoleucine]			less than 10%	less than 10%
